{"sequences": {"note": "The chains behind the UniProt entries cited, without tags or fusion partners.", "UniProt Q9UKV8, whole entry": "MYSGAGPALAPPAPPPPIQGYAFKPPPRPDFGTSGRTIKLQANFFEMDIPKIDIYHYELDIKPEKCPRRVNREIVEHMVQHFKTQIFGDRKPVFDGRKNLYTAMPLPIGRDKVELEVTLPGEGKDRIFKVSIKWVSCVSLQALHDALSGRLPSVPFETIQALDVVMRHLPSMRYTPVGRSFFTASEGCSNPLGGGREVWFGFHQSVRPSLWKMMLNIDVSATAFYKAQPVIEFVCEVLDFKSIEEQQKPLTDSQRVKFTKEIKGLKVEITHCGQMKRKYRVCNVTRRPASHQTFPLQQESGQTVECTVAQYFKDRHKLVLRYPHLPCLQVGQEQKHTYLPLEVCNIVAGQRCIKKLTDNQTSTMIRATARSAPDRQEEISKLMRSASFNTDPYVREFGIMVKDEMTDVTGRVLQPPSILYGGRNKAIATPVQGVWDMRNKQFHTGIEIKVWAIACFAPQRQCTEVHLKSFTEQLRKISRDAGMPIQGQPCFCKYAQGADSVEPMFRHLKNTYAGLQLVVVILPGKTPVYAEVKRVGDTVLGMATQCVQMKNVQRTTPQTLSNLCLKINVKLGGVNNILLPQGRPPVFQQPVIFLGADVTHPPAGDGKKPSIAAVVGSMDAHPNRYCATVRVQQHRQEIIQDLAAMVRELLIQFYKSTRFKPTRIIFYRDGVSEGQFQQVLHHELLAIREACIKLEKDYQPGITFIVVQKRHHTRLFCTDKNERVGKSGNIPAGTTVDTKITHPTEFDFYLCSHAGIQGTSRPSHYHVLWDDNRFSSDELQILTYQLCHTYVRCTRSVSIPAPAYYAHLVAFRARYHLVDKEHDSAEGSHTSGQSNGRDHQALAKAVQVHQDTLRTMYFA"}, "source": "paper doi:10.1101/2025.01.26.634929", "biological_target": "AGO2 fused with C-terminal Flag- and HA-epitope tags (e-AGO2) (UniProt Q9UKV8)", "assay": "affinity purification with mass spectrometry", "note": "These are yes or no findings as the source states them, for the method shown. In cells and extracts the contact can be indirect. Here binding means that the protein was enriched with, or labelled near, the bait; the list need not be complete. A no says only that the protein was not detected with the bait.", "data": [{"substance": "HNRNPK (from UniProt P61978 1-463)", "values": [{"measurement": "binding", "result": "no binding"}]}]}
